{"source": "the supplement of paper PMC4604168 (melanoma cell lines)", "note": "This is one part of the list. Many values rest on one well or one pass, so single values are uncertain.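 Cells were imaged in 1,536-well plates, and nuclei stained with an antibody against cleaved PARP were counted against all DNA-stained nuclei to give the apoptosis fraction. Screening doses were chosen to leave most cells alive, and resting and induced cleaved-PARP levels differ strongly between cell lines.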"}
{"test_system": "COLO829", "assay": "cleaved PARP positive nuclei fraction relative to DMSO control; melanoma cells; higher = more apoptosis", "settings": "library dose: low library concentration; 72 h", "units": {"cleaved PARP positive nuclei fraction": "%"}}
{"smiles": "CN(c1ncccc1CNc1nc(Nc2ccc3c(c2)CC(=O)N3)ncc1C(F)(F)F)S(C)(=O)=O", "note": "+ C=CCNC1=C2C[C@@H](C)C[C@H](OC)[C@H](O)[C@@H](C)/C=C(\\C)[C@H](OC(N)=O)[C@@H](OC)/C=C\\C=C(/C)C(=O)NC(=CC1=O)C2=O [Tanespimycin] (first compound 0.08 µM, partner dose 0.002 µM)", "cleaved PARP positive nuclei fraction": 68.4}
{"smiles": "C[C@]1(O)C[C@@H](c2nc(-c3ccc4ccc(-c5ccccc5)nc4c3)c3c(N)nccn32)C1", "note": "+ CCN(CC)CCNC(=O)c1c(C)[nH]c(/C=C2\\C(=O)Nc3ccc(F)cc32)c1C [sunitinib] (first compound 0.4 µM, partner dose 0.4 µM)", "cleaved PARP positive nuclei fraction": 60.5}
{"smiles": "C[C@]1(O)C[C@@H](c2nc(-c3ccc4ccc(-c5ccccc5)nc4c3)c3c(N)nccn32)C1", "note": "+ C[C@]1(c2nc3c(C(N)=O)cccc3[nH]2)CCCN1 [Veliparib] (first compound 0.4 µM, partner dose 1.4 µM)", "cleaved PARP positive nuclei fraction": 116}
{"smiles": "CCN(CC)CCNC(=O)c1c(C)[nH]c(/C=C2\\C(=O)Nc3ccc(F)cc32)c1C", "note": "[sunitinib] + C[C@]1(c2nc3c(C(N)=O)cccc3[nH]2)CCCN1 [Veliparib] (first compound 0.4 µM, partner dose 1.4 µM)", "cleaved PARP positive nuclei fraction": 96.6}
{"smiles": "CC1(C)CCC(c2ccc(Cl)cc2)=C(CN2CCN(c3ccc(C(=O)NS(=O)(=O)c4ccc(N[C@H](CCN5CCOCC5)CSc5ccccc5)c(S(=O)(=O)C(F)(F)F)c4)cc3)CC2)C1", "note": "+ CN1CCN(c2ccc3nc(-c4c(N)c5c(F)cccc5[nH]c4=O)[nH]c3c2)CC1 [Dovitinib] (first compound 0.4 µM, partner dose 0.1 µM)", "cleaved PARP positive nuclei fraction": 201}
{"smiles": "Cn1sc(=O)n(Cc2ccccc2)c1=O", "note": "+ Cn1c(Nc2ccc(C(F)(F)F)cc2)nc2cc(Oc3ccnc(-c4ncc(C(F)(F)F)[nH]4)c3)ccc21 [CHIR265] (first compound 0.4 µM, partner dose 0.08 µM)", "cleaved PARP positive nuclei fraction": 103}
{"smiles": "Cn1cnc2c(F)c(Nc3ccc(Br)cc3Cl)c(C(=O)NOCCO)cc21", "note": "[selumetinib] + C#Cc1cccc(Nc2ncnc3cc(OCCOC)c(OCCOC)cc23)c1 [erlotinib] (first compound 0.015 µM, partner dose 0.8 µM)", "cleaved PARP positive nuclei fraction": 29.6}
{"smiles": "NC(=O)c1ccc(N(C(N)=O)c2c(F)cccc2F)nc1-c1ccc(F)cc1F", "note": "+ C[C@@H](Oc1cc(-c2cnn(C3CCNCC3)c2)cnc1N)c1c(Cl)ccc(F)c1Cl [Crizotinib] (first compound 0.4 µM, partner dose 0.2 µM)", "cleaved PARP positive nuclei fraction": 103}
{"smiles": "CCN(CC)CCNC(=O)c1c(C)[nH]c(/C=C2\\C(=O)Nc3ccc(F)cc32)c1C", "note": "[sunitinib] + Nc1ccn([C@@H]2O[C@H](CO)[C@@H](O)C2(F)F)c(=O)n1 [gemcitabine] (first compound 0.4 µM, partner dose 0.0004 µM)", "cleaved PARP positive nuclei fraction": 109}
{"smiles": "CC1(C)CCC(c2ccc(Cl)cc2)=C(CN2CCN(c3ccc(C(=O)NS(=O)(=O)c4ccc(N[C@H](CCN5CCOCC5)CSc5ccccc5)c(S(=O)(=O)C(F)(F)F)c4)cc3)CC2)C1", "note": "+ CS(=O)(=O)CCNCc1ccc(-c2ccc3ncnc(Nc4ccc(OCc5cccc(F)c5)c(Cl)c4)c3c2)o1 [lapatinib] (first compound 0.4 µM, partner dose 0.8 µM)", "cleaved PARP positive nuclei fraction": 64}
{"smiles": "CC1(C)CCC(c2ccc(Cl)cc2)=C(CN2CCN(c3ccc(C(=O)NS(=O)(=O)c4ccc(N[C@H](CCN5CCOCC5)CSc5ccccc5)c(S(=O)(=O)C(F)(F)F)c4)cc3)CC2)C1", "note": "+ CCCS(=O)(=O)Nc1ccc(F)c(C(=O)c2c[nH]c3ncc(Cl)cc23)c1F [PLX4720] (first compound 0.4 µM, partner dose 0.08 µM)", "cleaved PARP positive nuclei fraction": 80.1}
{"smiles": "CN(c1ncccc1CNc1nc(Nc2ccc3c(c2)CC(=O)N3)ncc1C(F)(F)F)S(C)(=O)=O", "note": "+ NC1(c2ccc(-c3nc4ccn5c(=O)[nH]nc5c4cc3-c3ccccc3)cc2)CCC1 [MK2206] (first compound 0.08 µM, partner dose 0.4 µM)", "cleaved PARP positive nuclei fraction": 210}
{"smiles": "C[C@@H](N)c1ccc(C(=O)Nc2ccnc3[nH]ccc23)cc1", "note": "+ Nc1ccn([C@@H]2O[C@H](CO)[C@@H](O)C2(F)F)c(=O)n1 [gemcitabine] (first compound 0.4 µM, partner dose 0.0004 µM)", "cleaved PARP positive nuclei fraction": 96.1}
